These are yes or no findings as the source states them, for the method shown. In cells and extracts the contact can be indirect. Some binding calls cover weakened binding; strength is not graded here.
T1: BRCA2 and MEILB2-associated protein1 (BRME1) (mouse (endogenous in testis)) (UniProt Q6DIA7)
T1 sequence: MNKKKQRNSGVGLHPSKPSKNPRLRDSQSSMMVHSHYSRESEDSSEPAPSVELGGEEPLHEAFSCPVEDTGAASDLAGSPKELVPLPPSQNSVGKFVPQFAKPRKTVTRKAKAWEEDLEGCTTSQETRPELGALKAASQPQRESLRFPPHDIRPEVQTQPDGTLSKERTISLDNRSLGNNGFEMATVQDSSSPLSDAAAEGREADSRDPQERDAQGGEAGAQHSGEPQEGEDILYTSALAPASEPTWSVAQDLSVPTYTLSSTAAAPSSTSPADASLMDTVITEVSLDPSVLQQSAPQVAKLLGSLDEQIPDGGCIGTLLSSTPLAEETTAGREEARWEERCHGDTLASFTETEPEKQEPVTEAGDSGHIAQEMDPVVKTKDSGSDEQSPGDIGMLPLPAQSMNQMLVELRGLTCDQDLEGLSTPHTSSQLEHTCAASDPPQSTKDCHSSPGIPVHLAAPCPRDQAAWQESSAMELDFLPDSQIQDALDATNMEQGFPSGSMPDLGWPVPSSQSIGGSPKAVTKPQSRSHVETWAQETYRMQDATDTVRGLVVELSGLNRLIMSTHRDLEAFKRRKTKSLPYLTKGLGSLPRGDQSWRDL

T2: BRCA2 and MEILB2-associated protein1 (BRME1) (mouse (endogenous in testis)), Q6DIA7
T2 chain: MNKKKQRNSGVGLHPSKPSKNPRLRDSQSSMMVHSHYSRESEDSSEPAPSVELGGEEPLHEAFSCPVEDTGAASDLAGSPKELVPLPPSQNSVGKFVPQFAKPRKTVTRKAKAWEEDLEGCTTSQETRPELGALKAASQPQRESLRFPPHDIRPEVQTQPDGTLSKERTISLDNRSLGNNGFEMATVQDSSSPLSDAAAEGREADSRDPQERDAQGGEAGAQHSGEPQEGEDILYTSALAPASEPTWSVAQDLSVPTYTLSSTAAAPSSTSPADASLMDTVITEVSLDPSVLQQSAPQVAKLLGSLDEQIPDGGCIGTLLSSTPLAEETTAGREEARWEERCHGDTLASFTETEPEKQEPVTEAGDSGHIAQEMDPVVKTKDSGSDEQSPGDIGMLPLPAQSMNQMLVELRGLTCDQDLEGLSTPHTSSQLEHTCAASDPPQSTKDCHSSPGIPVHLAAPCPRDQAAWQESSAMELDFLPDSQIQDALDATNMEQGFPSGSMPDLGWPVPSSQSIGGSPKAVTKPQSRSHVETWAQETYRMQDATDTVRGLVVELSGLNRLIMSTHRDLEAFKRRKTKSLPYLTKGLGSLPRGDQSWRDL

B1: MEILB2/HSF2BP (protein, UniProt Q9D4G2 1-338)
chain: MAATVGDGSGTEEACRNMESKEEFVKVRKKDLERLTTEVMQIRDFLPRILNGELLESFQKLKMVEKNLERKEQELEQLIMDREHFKARLETAQADSGREKKEKLALRQQLNEAKQQLLQQAEYCTQMGAVTCTLLWGVSSSEEVVKTILGGDKALKFFNITGQTMESFVKSLDGDVKEVDSDENQFVFALAGIVTNVAAIACGREFLVNSSRVLLDTMLQLLGDLKPGQCTKLKVLMLMSLYNVSINSKGLKYITESPGFIPLLWWLLSDPDAEVCLHTLRLIQSVVLEPDVFSKVASELQSSLPLQRILAMSKSRNSHLQSAAQELLEDLRALDCNV
B2: RPA1, Q8VEE4 1-623 (protein)
chain: MVGHLSEGAIEVMIQQENTSIKPILQVINIRPISTGNRSPRYRLLMSDGLNTLSSFMLATQLNTLVEGGQLASNCVCQVHKFIVNTLKDGRKVVVLMDLEVMKSAEDVGLKIGNPVPYNEGYGQQQQQQQQQQQQAVPSPASAATPPASKPQPQNGSLGMGSTAAKAYGASKPFGKPAGTGLLQPSGGTQSKVVPIASLTPYQSKWTICARVTNKSQIRTWSNSRGEGKLFSLELVDESGEIRATAFNEQVDKFFPLIEVNKVYYFSKGALKIANKQFSAVKNDYEMTFNNETSVLPCEDGHHLPTVQFDFTGIGDLESKAKDALVDIIGICKSYEDSIKITVKSNNREVAKRNIYLMDMSGKVVTTTLWGEDADKFDGSRQPVMAIKGARVSDFGGRSLSVLSSSTVIVNPDIPEAYKLRGWFDSEGQALDGVSISDHRSGGAGGGNTNWKTLHEAKSENLGQGDKADYFSTVAAVVFLRKENCMYQACPTQDCNKKVIDQQNGLYRCEKCDREFPNFKYRMILSANIADFQENQWVTCFQESAEAILGQNTMYLGELKEKNEQAFEEVFQNANFRSFTFRIRVKLETYNDESRIKATVMDVKPVDFRDYGRRLIANIRKNM
B3: MEIOB, Q9D513 1-470 (protein)
chain: MAKFFALKNFTALSDLHPNMANLKIIGIVIGKTDVKGFPDRKNIGSERYTFSFTIRDSPCHFVNVSSWGSEDYIRSLSESFRVAECVIIENPLIQRKDTEREEKFSPATPSNYKLLLSENHSMVKVCSPYEVDTKLLSLIHLPVKESRDYYSLADIVANGHSLDGRIINVLAAVRSVGEPKYFTTSDRRKGQRCEVKLFDETEPSFTMTCWDNESILLAQSWMARETVIFASDVRINFNKFQNCMAATVISKTIITVNPDTPEANILLNYIRENKETNVADEIDSYLKESVNLNTIVDVYTVEQLKVKALKSEGKADPFYGILYAYISTLNIDDETTKVVRNRCSSCGYIVNEASNTCTICNQDSSRLKSFFLSFDVLVDLTDHTGTLHSCSLSGSIAEETLGCTINEFLTMTSEQKTKLKWQLLLERSKIYLKLILSHRARGGLKVTILSCKLADPTEASRNLARQGHT

What was measured:
[1] = molecular target: T1, BRCA2 and MEILB2-associated protein1 (BRME1) (mouse (endogenous in testis)); assay: co-IP
[2] = molecular target: T2, BRCA2 and MEILB2-associated protein1 …; assay: co-IP; conditions: remark: other sources report otherwise

| Binder | binding [1] | binding [2] |
| --- | --- | --- |
| B1 | binds | – |
| B2 | – | binds |
| B3 | – | binds |

— article doi:10.1101/2020.02.14.950204
